# Assay results as given in PubChem BioAssay AID485314 (National Center for Advancing Translational Sciences (NCATS), 2010).
# Hit rate of the full screen: of about 340,000 compounds, about 4,500 (1.3%) were called active. Inconclusive results, whose numbers are uncertain, are shown with a selection of clear calls. Calls follow the shape of the dose curve; as a rule, active = well fitted inhibition curve with a large enough effect; inconclusive = small, poorly fitted or top-dose-only effect, or another doubt; inactive = no such curve, though single readings can be large or run the other way. Where the call is inconclusive, the potency comes from a doubtful curve fit.
# Target: DNA polymerase beta (Homo sapiens) (UniProt P06746)
# Assay: qHTS Assay for Inhibitors of DNA Polymerase Beta
# Conditions: Pol beta primer extension/strand displacement, fluorescence kinetic; activity change, negative = inhibition: at 114 µM (top of the series)
# Outline: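 Kinetic readout of DNA synthesis with strand displacement by Pol beta. Compound and 10 nM enzyme sit 15 min at room temperature; 50 nM substrate starts the reaction, read immediately and at 10 min.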
# % is scaled to controls: 0 for no effect and ±100 for the full control effect; potency is read from the fitted curve at half-maximal effect.
SMILES,Potency,"activity change, negative = inhibition"
CN(C)c1nc2c(c(=O)[nH]c(=O)n2C)n1Cc1ccc(F)cc1,"inconclusive: 89.1 µM [inhibitor, single point]",
CC(C)(C)NC(=O)c1ccc2c3c(cccc13)CC2,"inconclusive: 89.1 µM [inhibitor, single point]",
O=C(O)c1ccc2c(c1)C(=O)N(c1cccc(-c3nc4ccccc4s3)c1)C2=O,active: 17.8 µM,
O=C(N/N=C/C1=Cc2ccccc2OC1)c1ccncc1,"inconclusive: 20 µM [inhibitor, full curve, poor fit]",
Cn1ncc(N=Cc2c(O)ccc3ccccc23)c1C(=O)Nc1cccc(Cl)c1,,inactive: 1.19%
Cc1cc(Br)ccc1OCC(=O)NNC(=O)C(=O)Nc1ccccc1,active: 28.2 µM,
COc1ccc(-c2noc(-c3ccc(N4CCC(C)CC4)c([N+](=O)[O-])c3)n2)cc1OC,active: 79.4 µM,
CCCCNc1nc2c(c(=O)n(Cc3ccc(Cl)c(Cl)c3)c(=O)n2C)n1C,,inactive: -24.3%
CCCCNc1nnc(Cc2ccc(Cl)cc2)c(=O)[nH]1,"inconclusive: 4.47 µM [inhibitor, full curve, poor fit]",
O=c1[nH]ncc(N2CCN(C(c3ccccc3)c3ccccc3)CC2)c1Cl,"inconclusive: 25.1 µM [inhibitor, single point]",
N/C(=N\OC(=O)Nc1ccccc1)c1ncc([N+](=O)[O-])s1,"inconclusive: 39.8 µM [inhibitor, single point]",
Cc1nonc1CN(C)C(=O)CC1C(=O)NCCN1Cc1ccc(F)c(F)c1 (stereo not drawn),"inconclusive: 25.1 µM [inhibitor, full curve, poor fit]",
O=C(c1ccc(CNc2c(N3CCCC3)c(=O)c2=O)cc1)N1CCN(C2CCCCC2)CC1,"inconclusive: 89.1 µM [inhibitor, single point]",
O=C(N/N=C/c1cccs1)c1n[nH]c2c1CCC2,,inactive: 0.282%
O=C1NC(=S)SC1=C1CCCC1,active: 22.4 µM,
O=S(=O)(Nc1ccc(Cl)cn1)c1ccccc1,"inconclusive: 79.4 µM [inhibitor, single point]",
O=c1oc2cc(O)ccc2cc1-c1ccc(F)cc1,"inconclusive: 3.55 µM [inhibitor, full curve, poor fit]",
O=C(Nc1nc(=O)c2ccccc2s1)c1ccc(Cl)cc1,"inconclusive: 79.4 µM [inhibitor, single point]",
CC(C)c1ccc(Nc2nc3c(S(=O)(=O)c4ccc(Br)cc4)nnn3c3ccsc23)cc1,,inactive: 0.938%
COc1ccc2nc(NC(=O)c3ccccc3-c3ccccc3C(=O)O)sc2c1,"inconclusive: 89.1 µM [inhibitor, single point]",
Cc1cc2nc(-c3cccc(NC(=O)CSc4ccc(Cl)cc4)c3)oc2cc1C,,inactive: -18.7%
COC(=O)c1ccccc1NC(=O)Cn1c(=O)n(CCCC(=O)NCc2ccccc2OC)c(=O)c2ccccc21,,inactive: 30.3%
Cc1cc(C)c(C(=O)COc2cccnc2[N+](=O)[O-])cc1C,"inconclusive: 56.2 µM [inhibitor, partial curve, poor fit]",

SMILES,Potency,"activity change, negative = inhibition"
Cc1cc(C)cc(-n2ccn(CC(=O)Nc3ccccc3F)c(=O)c2=O)c1,"inconclusive: 35.5 µM [inhibitor, full curve]",
CCOc1ccc(-n2nc(CO)c(C(=O)NCc3cccc(OC)c3)n2)cc1,"inconclusive: 28.2 µM [inhibitor, full curve]",
COC(=O)c1ccc(NC(=O)COC(=O)CSc2nc(C)cc(C)n2)cc1,"inconclusive: 0.126 µM [inhibitor, full curve, poor fit]",
Cc1ccc(C)c(NC(=O)c2cc3ccccc3o2)c1,"inconclusive: 2.51 µM [inhibitor, partial curve, poor fit]",
O=C(NNC(=O)C1CC1)c1cc2cc3ccccc3nc2s1,"inconclusive: 22.4 µM [inhibitor, full curve]",
CS(=O)(=O)c1ccc(Cl)c(NC(=O)C2CC(=O)N(Cc3ccccc3)C2)c1 (stereo not drawn),"inconclusive: 50.1 µM [inhibitor, partial curve]",
CCN1/C(=C/c2ccc3cc(C)ccc3[n+]2CC)Sc2cc(C)ccc21,"inconclusive: 31.6 µM [inhibitor, partial curve, poor fit]",
FC(F)(F)c1cccc(-c2cc(C3CCNCC3)[nH]n2)c1,"inconclusive: 3.16 µM [inhibitor, single point]",
O=C(CSc1nc(-c2ccc(F)cc2)cs1)NC(=O)NCc1ccco1,"inconclusive: 28.2 µM [inhibitor, single point]",
C=C(CCC(=O)c1ccccc1)C(=O)c1ccccc1,"inconclusive: 89.1 µM [inhibitor, single point]",
CCO[C@@H]1OC(C(=O)N2CCN(Cc3ccccc3)CC2)=C[C@H](C2CC2)[C@H]1CCCO,"inconclusive: 79.4 µM [inhibitor, single point]",
Cc1ccc(SCC(=O)NCc2ccc(F)cc2)cc1,"inconclusive: 89.1 µM [inhibitor, single point]",
CCOC(=O)C1=C(C)NC(=S)NC1c1ccc(C)s1 (stereo not drawn),"inconclusive: 0.316 µM [inhibitor, full curve, poor fit]",
O=C(NC1CC1)c1cc(-c2ccco2)nc2ccccc12,,inconclusive: -111% [inhibitor]
Cc1cn2c(=O)cc(COc3ccccc3NC(=O)c3ccc(Cl)cc3)nc2s1,,inactive: 3.4%
CC1=Nc2ccc(C)cc2/C1=C/c1c(N)n2oc(C)cc2nc1=O,"inconclusive: 25.1 µM [inhibitor, partial curve, poor fit]",
Oc1cc2ccccc2cc1-c1n[nH]c(=S)o1,"inconclusive: 35.5 µM [inhibitor, full curve]",
O=C(Nc1ccc(N2CCOCC2)cc1)c1cc2ccccc2o1,"inconclusive: 12.6 µM [inhibitor, full curve, poor fit]",
O=C(N/N=C/c1cccc(OC(=O)c2cccc(Br)c2)c1)c1cccnc1,"inconclusive: 35.5 µM [inhibitor, full curve]",
O=C(NCCS(=O)(=O)N1CCN(c2cccc(Cl)c2)CC1)c1cc(=O)c2ccccc2o1,"inconclusive: 89.1 µM [inhibitor, single point]",
Cc1ccc(C(=O)NN2CC(O)=C(c3nc(-c4cccc([N+](=O)[O-])c4)cs3)C2=N)cc1,active: 5.01 µM,
CCn1c(CNC(=O)C23CC4CC(CC(C4)C2)C3)nnc1SCC(=O)Nc1ccc(F)cc1,"inconclusive: 89.1 µM [inhibitor, single point]",
C/C(=N\Nc1nc(-c2cc(C)ccc2C)cs1)c1cc2ccccc2oc1=O,active: 50.1 µM,

SMILES,Potency,"activity change, negative = inhibition"
CC1CCCCN1C(=O)CSc1nc2ccccc2n1CC(=O)N1CCc2ccccc21 (stereo not drawn),"inconclusive: 0.794 µM [inhibitor, full curve, poor fit]",
O=C(NNS(=O)(=O)c1ccccc1)c1cc2cc3ccccc3nc2s1,"inconclusive: 7.94 µM [inhibitor, full curve, poor fit]",
CC(=O)C1=C(O)C(=O)N(Cc2ccccc2)C1c1ccc(Cl)cc1 (stereo not drawn),,inactive: 9.7%
Cc1ccc(C)c(NC(=O)CSc2ccc(-c3ccco3)nn2)c1,"inconclusive: 20 µM [inhibitor, full curve]",
Clc1ccc(C2CC(c3cccs3)n3ncnc3N2)cc1 (stereo not drawn),"inconclusive: 22.4 µM [inhibitor, partial curve]",
O=C(Cn1c(SCC(=O)N2CCc3ccccc3C2)nc2ccccc21)NC1CCCC1,active: 89.1 µM,
CCOc1ccc(NC(=O)Cn2cc(C(=O)c3ccc(CC)cc3)c(=O)c3ccc(C)nc32)cc1,"inconclusive: 1.78 µM [inhibitor, full curve]",
CCOC(=O)c1ccccc1NC(=O)c1ccc2nccnc2c1,active: 8.91 µM,
CC1(C)c2ccccc2N2CC(=O)N(CC(N)=O)C21C (stereo not drawn),active: 44.7 µM,
O=C(Cn1cnc2c(nnn2-c2ccccc2)c1=O)NCc1ccc(F)cc1,"inconclusive: 12.6 µM [inhibitor, full curve]",
COc1ccc(OC)c(NC(=O)c2sc3nc4c(cc3c2N)CCCCCC4)c1,"inconclusive: 17.8 µM [inhibitor, single point]",
Nc1cc(C(=O)O)c(N)c2c1C(=O)c1ccccc1C2=O,,inconclusive: -97.3% [inhibitor]
c1ccc(OCc2nn3c(-c4n[nH]c5c4CCC5)nnc3s2)cc1,"inconclusive: 10 µM [inhibitor, full curve]",
COc1ccc(CCN(C)C(=S)Nc2cccc(C)c2)cc1OC,"inconclusive: 89.1 µM [inhibitor, single point]",
Cc1ccccc1-c1nnc(SCC(=O)NCc2ccc3c(c2)OCO3)n1C,,inactive: 25%
CCOc1ccc(Br)cc1C(=O)N/N=C/c1ccc([N+](=O)[O-])cc1,"inconclusive: 5.01 µM [inhibitor, full curve, poor fit]",
COc1ccc(CCNC(=O)CCc2ccc(S(=O)(=O)NC(C)C)cc2)cc1,"inconclusive: 89.1 µM [inhibitor, single point]",
CCOC(=O)N/N=C\C=C\c1ccco1,"inconclusive: 22.4 µM [inhibitor, single point]",
Cc1ccc2[nH]c(C)c(CCNC(=O)NC3CCCCC3)c2c1,"inconclusive: 89.1 µM [inhibitor, single point]",
CCN(CC)CCOc1ccc2c(c1)C(=NNC(=O)c1ccccn1)c1cc(OCCN(CC)CC)ccc1-2,active: 2.82 µM,
COc1ccccc1/C=C1\SC(=S)N(C(C(=O)O)c2ccccc2)C1=O (stereo not drawn),,inactive: -22.8%
CC(=O)n1c2c(c3ccccc31)OC(N)=C(C#N)C2c1cccc(Cl)c1Cl (stereo not drawn),"inconclusive: 56.2 µM [inhibitor, partial curve]",

# Among those listed so far, these contain a COOH group.
SMILES,Potency,"activity change, negative = inhibition"
O=C(O)c1ccc2c(c1)C(=O)N(c1cccc(-c3nc4ccccc4s3)c1)C2=O,active: 17.8 µM,
COc1ccc2nc(NC(=O)c3ccccc3-c3ccccc3C(=O)O)sc2c1,"inconclusive: 89.1 µM [inhibitor, single point]",
Nc1cc(C(=O)O)c(N)c2c1C(=O)c1ccccc1C2=O,,inconclusive: -97.3% [inhibitor]
COc1ccccc1/C=C1\SC(=S)N(C(C(=O)O)c2ccccc2)C1=O (stereo not drawn),,inactive: -22.8%
